# Measurements: ChEMBL document CHEMBL1629460, “Image-based high-throughput drug screening targeting the intracellular stage of Trypanosoma cruzi, the agent of Chagas' disease” (Antimicrob Agents Chemother, 2010)
# Tests used:
# Trypanosoma cruzi = test: Antitrypanosomal activity against Trypanosoma cruzi amastigotes infected in BESM cells measured after 88 hrs postinfection by HTS assay; assay type: functional, organism-based
# [1] = Cytotoxicity against BESM cells after 88 hrs by HTS assay; assay type: ADME, cell-based; details: Bos taurus
# [2] = Selectivity window, ratio of EC50 for BESM cells to EC50 for Trypanosoma cruzi amastigotes infected in BESM cells; set-up: reference not given here
compound,measurement,setting,value
CCCCc1oc2ccccc2c1C(=O)c1cc(I)c(OCCN(CC)CC)c(I)c1 [AMIODARONE],EC50,Trypanosoma cruzi,0.8 µM
same,EC50,[1],36 µM
same,Ratio EC50,[2],45
